Test results reported in patent US9737493B2, “Compositions and methods for modulating DNMT1 inhibitor activity” (University of Louisville Research Foundation, Inc., priority 2012, dated 2017).
Structures can show the parent of a compound that is named as a salt.

Assay: DTNB assay for free sulfhydryls
Settings: 0.25 mM Cys or GSH, pH 8, 30 min, 37° C.
Protocol: FIG. 12: XB05 is Weakly Reactive with Thiols In Vitro: 0.25 mM Cysteine (Cys, top panel) or glutathione (GSH, bottom panel) were incubated with XB05, diethyl maleate (DEM), or maleimide at the indicated concentrations, or with an equivalent amount of vehicle (DMSO), for 30 min at 37° C. 5,5′-Dithiobis-2-nitrobenzoic acid (DTNB) assays were conducted as described in Methods. Absorbance for triplicate wells was determined at 412 nm. Points represent the mean and standard deviation for triplicate wells. Data shown are representative of two independent experiments.
Dithiobis-2-nitrobenzoic Acid (DTNB) Assay for Free Sulfhydryls. For each experiment, a 20× working solution of DTNB (2 mM DTNB, 50 mM sodium acetate in 100 mM Tris-HCl, pH 8.0) and 2× solutions of cysteine and GSH (0.5 mM in 100 mM Tris-HCl, pH 8.0) were freshly prepared. 10 mM stock solutions of XB05, diethyl maleate and maleimide were prepared in 100% DMSO, and subsequently serially diluted to 2× working solutions in 100 mM Tris-HCl, pH 8.0. 100 μl each of thiol compounds (final concentration 0.25 mM) and thiol-reactive compounds (final concentrations 0.05-5 mM) or vehicle control (DMSO) were added in duplicate to a 96-well plate and allowed to incubate at 37° C. for 30 minutes. […] Absorbance was read on a Biotek HT Synergy Plate reader (Winooski, Vt.) at 412 nm.

## CCOC(=O)/C=C\C(=O)OCC [DEM, diethyl maleate, reference compound]
  reactivity with free Cys or GSH: less reactive than maleimide, but still more reactive than XB05
